The values below come from article PMC4558565.

Numbering of substitutions follows the chain as printed. These are yes or no findings as the source states them, for the method shown. For part of these data: Binding seen in cells or lysates may run through a third protein. Some binding calls cover weakened binding; strength is not graded here. Sequences can lack the tags named with a protein.

Test [1] has as its target bZIP63 (split-CFP BiFC fusion) (Arabidopsis thaliana) (UniProt B9DGI8). As to the kind of experiment: split reporter; BiFC with split CFP in transiently transformed Nicotiana tabacum leaf epidermis; confocal microscopy 48 hr after infiltration, same settings for each construct.
For test [2], the target named is T1, SNF4 (split-CFP BiFC fusion) (Arabidopsis thaliana) (UniProt Q944A6).
T1 sequence: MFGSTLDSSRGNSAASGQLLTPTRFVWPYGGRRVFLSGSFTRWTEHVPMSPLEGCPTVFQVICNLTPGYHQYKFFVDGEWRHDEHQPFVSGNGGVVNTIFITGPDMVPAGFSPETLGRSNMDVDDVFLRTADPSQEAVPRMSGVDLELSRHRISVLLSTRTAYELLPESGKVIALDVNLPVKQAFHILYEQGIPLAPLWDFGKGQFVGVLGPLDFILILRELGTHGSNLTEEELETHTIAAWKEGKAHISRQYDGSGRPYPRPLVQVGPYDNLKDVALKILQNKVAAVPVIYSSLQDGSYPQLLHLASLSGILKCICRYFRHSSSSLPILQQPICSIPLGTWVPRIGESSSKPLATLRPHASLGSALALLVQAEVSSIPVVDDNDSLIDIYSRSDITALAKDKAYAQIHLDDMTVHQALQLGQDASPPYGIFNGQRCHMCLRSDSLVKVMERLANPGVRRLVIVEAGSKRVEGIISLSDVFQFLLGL
The test is described as above.

In test [3] the target is T2, AKIN11 (split-CFP BiFC fusion) (Arabidopsis thaliana) (UniProt P92958).
T2 sequence: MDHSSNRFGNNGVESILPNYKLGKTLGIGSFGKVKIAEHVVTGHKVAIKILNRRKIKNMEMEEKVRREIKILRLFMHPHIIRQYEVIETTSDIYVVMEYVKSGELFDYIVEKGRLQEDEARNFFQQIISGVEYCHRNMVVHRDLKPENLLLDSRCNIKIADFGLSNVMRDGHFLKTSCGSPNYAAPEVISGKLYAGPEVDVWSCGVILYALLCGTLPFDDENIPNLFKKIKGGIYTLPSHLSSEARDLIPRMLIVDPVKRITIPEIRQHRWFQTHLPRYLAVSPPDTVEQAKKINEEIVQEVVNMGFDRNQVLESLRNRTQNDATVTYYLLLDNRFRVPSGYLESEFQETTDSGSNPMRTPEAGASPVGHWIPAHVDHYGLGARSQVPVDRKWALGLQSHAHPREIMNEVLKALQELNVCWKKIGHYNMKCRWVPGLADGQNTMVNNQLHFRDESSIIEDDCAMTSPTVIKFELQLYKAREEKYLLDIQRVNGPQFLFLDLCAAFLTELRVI
The description is as above.

The target in test [4] is T3, AKIN10 (split-CFP BiFC fusion) (Arabidopsis thaliana) (UniProt Q38997).
T3 sequence: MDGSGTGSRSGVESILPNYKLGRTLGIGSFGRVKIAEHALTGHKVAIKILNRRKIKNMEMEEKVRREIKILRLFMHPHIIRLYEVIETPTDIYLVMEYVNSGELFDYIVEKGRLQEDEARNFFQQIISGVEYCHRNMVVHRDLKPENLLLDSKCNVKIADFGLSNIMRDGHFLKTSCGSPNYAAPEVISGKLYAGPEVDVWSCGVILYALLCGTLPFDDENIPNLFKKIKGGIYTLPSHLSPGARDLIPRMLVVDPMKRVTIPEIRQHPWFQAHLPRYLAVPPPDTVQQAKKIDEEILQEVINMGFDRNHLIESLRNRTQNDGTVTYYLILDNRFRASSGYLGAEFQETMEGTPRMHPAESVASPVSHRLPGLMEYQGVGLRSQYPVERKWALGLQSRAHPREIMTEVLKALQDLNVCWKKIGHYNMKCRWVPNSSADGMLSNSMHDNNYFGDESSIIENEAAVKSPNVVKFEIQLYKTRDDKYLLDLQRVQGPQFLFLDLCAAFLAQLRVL
Described as above.

Test [5] concerns the target T4, bZIP11 fused to the N-terminal moiety of CFP (multi-color BiFC) (Arabidopsis thaliana) (UniProt O65683).
T4 sequence: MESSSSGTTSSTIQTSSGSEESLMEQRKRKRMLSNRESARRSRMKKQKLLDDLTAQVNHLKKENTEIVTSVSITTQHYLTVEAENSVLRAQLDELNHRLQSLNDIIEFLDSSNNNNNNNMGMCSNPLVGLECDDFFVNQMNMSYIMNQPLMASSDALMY
Nature of the test: split reporter; multi-color BiFC in transiently transformed Nicotiana tabacum leaves; bZIP11-CFP-N, bZIP1-VENUS-N and CFP-C-bZIP63 (wt or S29/294/300A) from one plasmid, AKIN10-mCherry co-transformed; VENUS/CFP ratio in nuclei with mCherry signal, 48 hr after infiltration.

The target of test [6] is T5, bZIP1 fused to the N-terminal moiety of VENUS (multi-color BiFC) (Arabidopsis thaliana) (UniProt Q9FGX2).
T5 sequence: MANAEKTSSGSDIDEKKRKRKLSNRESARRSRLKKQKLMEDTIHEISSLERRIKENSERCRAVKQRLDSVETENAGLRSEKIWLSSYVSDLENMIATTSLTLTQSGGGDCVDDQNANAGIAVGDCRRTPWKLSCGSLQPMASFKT
The description is as above.

In test [7] the target is T6, bZIP11 (protoplast two-hybrid fusion) (Arabidopsis thaliana) (UniProt O65683).
T6 sequence: T4 sequence
As to the kind of experiment: two-hybrid; protoplast two-hybrid (P2H) in Arabidopsis leaf protoplasts; GAL4-AD and GAL4-BD fusions, GAL-UAS4::GUS reporter normalised to 35S::NAN; without and with co-transformation of AKIN10; 16 hr.

Test [8] addresses T7, bZIP1 fused to the Gal4-BD (protoplast two-hybrid) (Arabidopsis thaliana) (UniProt Q9FGX2).
T7 sequence: T5 sequence
The description is as above.

Test [9] deals with T8, BD-bZIP63 S29/294/300A (protoplast two-hybrid) (Arabidopsis thaliana) (UniProt B9DGI8).
T8 sequence: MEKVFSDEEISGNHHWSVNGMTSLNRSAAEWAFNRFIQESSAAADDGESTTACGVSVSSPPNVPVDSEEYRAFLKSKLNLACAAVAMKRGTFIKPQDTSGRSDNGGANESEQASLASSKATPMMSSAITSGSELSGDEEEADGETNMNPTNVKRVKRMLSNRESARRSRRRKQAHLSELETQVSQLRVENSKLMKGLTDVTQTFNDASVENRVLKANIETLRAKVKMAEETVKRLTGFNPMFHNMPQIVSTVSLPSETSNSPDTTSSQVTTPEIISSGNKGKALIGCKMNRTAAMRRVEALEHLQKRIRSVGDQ
The test is described as above.

The target in test [10] is T9, BD-bZIP63 S29A (protoplast two-hybrid) (Arabidopsis thaliana) (UniProt B9DGI8).
T9 sequence: T8 sequence with A294S, A300S
The description is as above.

The target in test [11] is T10, BD-bZIP63 with the two C-terminal sites mutated, S294/300A (protoplast two-hybrid) (Arabidopsis thaliana) (UniProt B9DGI8).
T10 sequence: T8 sequence with A29S
The description is as above.

Test [12] deals with T11, bZIP63 (protoplast two-hybrid fusion) (Arabidopsis thaliana) (UniProt B9DGI8).
T11 sequence: T8 sequence with A29S, A294S, A300S
The description is as above.

B1: bZIP63 (split-CFP BiFC fusion) (protein, UniProt B9DGI8 1-314)
chain: T8 sequence with A29S, A294S, A300S
B1: the binding entry in test [1] was “binds”; in test [2] it was “binds”; in [3], “binds weakly”; in test [4] it was “binds”; in test [5] it was “binds”; in test [6] it was “binds”.

B2: bZIP63 (protoplast two-hybrid fusion) (protein, UniProt B9DGI8 1-314)
chain: T8 sequence with A29S, A294S, A300S
In the case of B2, the binding result in test [7], in test [8], in test [9], in test [10], in test [11] and in test [12] was “binds” throughout.
